The target in this experiment is 3-Flag-tagged ESCO2 (establishment of sister chromatid cohesion N-acetyltransferase 2) (UniProt Q56NI9). In words: affinity purification with mass spectrometry; FaDu cells stably expressing 3-Flag-tagged ESCO2 or vehicle vector; IP lysis buffer; anti-Flag antibody on protein A beads, 4 °C overnight; eluted with 3-Flag peptide; Coomassie-stained gel, shotgun LC-MS/MS.

Protein sequences, listed by entry. Tags and fused reporters are not part of them.
UniProt Q56NI9: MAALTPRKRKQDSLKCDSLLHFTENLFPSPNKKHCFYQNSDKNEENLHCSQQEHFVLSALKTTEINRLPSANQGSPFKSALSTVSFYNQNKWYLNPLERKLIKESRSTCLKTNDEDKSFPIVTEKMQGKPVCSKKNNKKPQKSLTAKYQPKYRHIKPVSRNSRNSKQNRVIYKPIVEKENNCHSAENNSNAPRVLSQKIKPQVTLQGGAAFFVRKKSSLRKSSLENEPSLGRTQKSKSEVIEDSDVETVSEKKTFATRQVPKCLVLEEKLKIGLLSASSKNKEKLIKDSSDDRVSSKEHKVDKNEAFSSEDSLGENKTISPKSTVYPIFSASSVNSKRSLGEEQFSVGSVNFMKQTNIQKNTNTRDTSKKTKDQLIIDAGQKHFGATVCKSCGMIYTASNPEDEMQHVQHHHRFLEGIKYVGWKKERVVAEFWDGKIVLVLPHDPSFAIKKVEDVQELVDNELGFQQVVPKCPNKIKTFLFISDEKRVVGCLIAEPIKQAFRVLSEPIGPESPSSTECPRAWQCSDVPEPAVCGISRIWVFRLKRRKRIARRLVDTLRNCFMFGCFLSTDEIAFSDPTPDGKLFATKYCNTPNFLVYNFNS
UniProt P42224: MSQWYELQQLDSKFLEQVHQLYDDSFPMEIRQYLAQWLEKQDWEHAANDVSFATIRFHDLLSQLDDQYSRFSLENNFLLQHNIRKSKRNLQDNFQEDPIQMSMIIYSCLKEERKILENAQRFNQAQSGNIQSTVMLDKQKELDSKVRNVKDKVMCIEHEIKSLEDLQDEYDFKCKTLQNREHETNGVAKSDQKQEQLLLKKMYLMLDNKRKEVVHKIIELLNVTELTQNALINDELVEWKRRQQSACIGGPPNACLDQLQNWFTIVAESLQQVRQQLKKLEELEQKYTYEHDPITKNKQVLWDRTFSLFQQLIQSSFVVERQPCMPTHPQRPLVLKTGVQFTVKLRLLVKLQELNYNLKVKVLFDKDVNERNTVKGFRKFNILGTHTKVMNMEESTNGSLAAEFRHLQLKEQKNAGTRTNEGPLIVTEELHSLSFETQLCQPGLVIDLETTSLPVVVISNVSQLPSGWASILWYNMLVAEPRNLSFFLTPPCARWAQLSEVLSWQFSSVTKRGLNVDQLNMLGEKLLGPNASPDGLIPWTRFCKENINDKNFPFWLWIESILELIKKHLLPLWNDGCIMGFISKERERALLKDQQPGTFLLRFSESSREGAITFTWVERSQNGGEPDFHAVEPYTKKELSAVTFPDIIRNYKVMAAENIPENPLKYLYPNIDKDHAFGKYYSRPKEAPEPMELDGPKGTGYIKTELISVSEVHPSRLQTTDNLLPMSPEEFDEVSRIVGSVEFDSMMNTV

These are yes or no findings as the source states them, for the method shown. Binding seen in cells or lysates may run through a third protein. These calls come from enrichment with a bait or labelling near it, and not all partners need be listed.

As to “signal transducer and activator of transcription 1 (STAT1) (from UniProt P42224 1-750)”, the binding result is “binds”.

The values above are taken from publication PMC10647066.
